Test results: PubChem BioAssay AID1487 (National Center for Advancing Translational Sciences (NCATS), 2009)
“And” between values parts separate entries of the source, which are not always exact repeats. Equal values may be shown once. This is one part of the list. These are further read-outs of the screen, such as a control signal, another cell line or another target. No call is given for them. The list favours compounds with an active or inconclusive main result. Words in brackets tell the shape of the fitted curve; partial curves, single points and poor fits give uncertain potencies.

Test: qHTS Assay for Modulators of Lamin A Splicing
Details: HeLa LMNA splicing GFP/RFP minigene ratio, 48 h
Procedure, shortened: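 S3 HeLa cells stably expressing lamin A-EGFP splicing minigene plus DsRed2, 600 cells/well, 48 h compound exposure at 37C. Laser-scanning cytometry; analysed as GFP (500-530 nm)/RFP (575-640 nm) total intensity ratio; 0.5% DMSO vehicle.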

[1] = measured here: RFP viability control channel
[2] = measured here: GFP splicing reporter channel

SMILES	AC50 [1]	AC50 [2]
N#Cc1nn(-c2c(Cl)cc(C(F)(F)F)cc2Cl)c(N)c1S(=O)C(F)(F)F (configuration not stated)	5.62 µM [rising, single point]	
COC(=O)C1=Nc2ccccc2/C1=C\c1c(O)n(-c2ccc(Br)cc2)c(=O)[nH]c1=O	14.1 µM [rising, single point]	
COC(=O)N1CCN(C(=O)Cc2ccc(Cl)c(Cl)c2)C(CN2CCCC2)C1 (configuration not stated)	5.62 µM [falling, partial curve, poor fit]	
NCC(O)c1ccc(O)cc1 (configuration not stated)	15.8 µM [rising, single point]	0.000891 µM [falling, full curve, poor fit]
C[N+]1(C)C2CCC1CC(OC(=O)C(CO)c1ccccc1)C2 (configuration not stated)		0.00112 µM [rising, full curve, poor fit]
C[C@]12CC[C@H]3[C@@H](CCC4=CC(=O)CC[C@@]43C)[C@@H]1CC[C@@H]2O	5.62 µM [rising, partial curve]	2 µM [rising, full curve]
O=C(O)c1nn(Cc2ccc(Cl)c(Cl)c2)c2ccccc12		6.31 µM [falling, single point]
c1ccc2c(c1)Nc1ccccc1S2	0.000891 µM [falling, full curve, poor fit]	
C#CC1(O)C=CC2C3CCC4=CC(=O)CCC4C3CCC21CC (configuration not stated)	10 µM [rising, partial curve]	14.1 µM [rising, single point]
O=c1c2ccccc2[se]n1-c1ccccc1	0.002 µM [falling, full curve, poor fit]	11.2 µM [falling, partial curve]
COc1ccc(Cl)cc1NC(=O)c1sc2nc3c(cc2c1N)N1CCC3CC1		1.41 µM [rising, partial curve]
C[C@H](CCC(=O)O)[C@H]1CC[C@H]2[C@@H]3C(=O)C[C@@H]4CC(=O)CC[C@]4(C)[C@H]3CC(=O)[C@]12C	0.708 µM [falling, partial curve, poor fit]	0.0398 µM [falling, full curve, poor fit]
O=C(COc1ccc(S(=O)(=O)N2CCOCC2)cc1)N1CCN(Cc2ccc3c(c2)OCO3)CC1	20 µM [rising, single point]	
CN[C@@H](C)[C@H](O)c1ccccc1	15.8 µM [falling, single point]	3.55 µM [falling, partial curve]
C=CCN1CC[C@]23CCCCC2[C@H]1Cc1ccc(O)cc13 (some centres not stated)	14.1 µM [rising, single point]	10 µM [falling, partial curve] and 7.94 µM [falling, partial curve, poor fit]
CCn1c(O)c(C=Nc2ccc(N3CCOCC3)c(Br)c2)c(=O)n(CC)c1=S	35.5 µM [falling, single point]	35.5 µM [falling, single point]
Cc1ccc(-c2nc3ccccc3c(=O)n2-c2cccc(O)c2)cc1	1.26 µM [falling, full curve]	
CC12NC(Cc3ccccc31)c1ccccc12 (configuration not stated)	5.62 µM [falling, single point]	5.62 µM [falling, partial curve, poor fit]
CC(=O)O[C@H]1C[C@@H](O[C@@H]2[C@H](C)O[C@H](O[C@@H]3[C@H](C)O[C@H](O[C@@H]4CC[C@@]5(C)[C@@H](CC[C@]6(C)[C@]5(C)C[C@H](O)[C@]5(C)[C@@H](C7=CC(=O)OC7)CC[C@@]56O)C4)C[C@@H]3O)C[C@@H]2O)O[C@@H](C)[C@H]1O[C@H]1O[C@@H](CO)[C@@H](O)[C@@H](O)[C@@H]1O	0.631 µM [falling, full curve]	0.794 µM [falling, full curve]
CCS(=O)(=O)N1CCC(C(=O)N2CCC3(CC2)OCCO3)CC1	35.5 µM [falling, single point]	25.1 µM [falling, single point]
CCCCCCCCOC(=O)c1ccccc1C(=O)OCCCCCCCC	12.6 µM [falling, partial curve]	20 µM [falling, partial curve, poor fit]
CCOC(=O)CNc1ccc(C(=O)OCC)cc1[N+](=O)[O-]	0.0891 µM [rising, partial curve]	0.891 µM [rising, partial curve]
Clc1ccc(CO[C@@H](Cn2ccnc2)c2ccc(Cl)cc2Cl)cc1	7.94 µM [falling, single point]	10 µM [falling, partial curve]
Nc1cc(Cl)c2nonc2c1[N+](=O)[O-]	12.6 µM [rising, partial curve]	
COCCCOc1ccnc(CS(=O)c2nc3ccccc3[nH]2)c1C (configuration not stated)	0.0282 µM [falling, partial curve, poor fit]	0.00126 µM [falling, full curve, poor fit]
CCOC(=O)C1(c2ccccc2)CCN(CC(=O)Nc2cccc3ccccc23)CC1	31.6 µM [rising, single point]	35.5 µM [rising, single point]
C[N+]1(C)[C@@H]2CC(OC(=O)[C@H](CO)c3ccccc3)C[C@H]1[C@@H]1O[C@@H]12 (some centres not stated)		0.00316 µM [falling, full curve, poor fit]

Reprinted at random: three compounds from above
SMILES	AC50 [1]	AC50 [2]
CCCCCCCCOC(=O)c1ccccc1C(=O)OCCCCCCCC	12.6 µM [falling, partial curve]	20 µM [falling, partial curve, poor fit]
C[C@H](CCC(=O)O)[C@H]1CC[C@H]2[C@@H]3C(=O)C[C@@H]4CC(=O)CC[C@]4(C)[C@H]3CC(=O)[C@]12C	0.708 µM [falling, partial curve, poor fit]	0.0398 µM [falling, full curve, poor fit]
O=c1c2ccccc2[se]n1-c1ccccc1	0.002 µM [falling, full curve, poor fit]	11.2 µM [falling, partial curve]

The list continues:

SMILES	AC50 [1]	AC50 [2]
CCOP(=O)(OCC)/C(=N/OC(=O)c1ccccc1C)C(N)=O	20 µM [rising, partial curve, poor fit]	
C#CC[N+]1(C)C2CCC1CC(O)C2 (configuration not stated)	0.141 µM [falling, partial curve, poor fit]	
C[C@H]1CC[C@@H]2[C@@H](C)C(=O)O[C@H]3O[C@@]4(C)CC[C@H]1[C@@]32OO4	0.355 µM [falling, single point]	0.2 µM [falling, single point]
CCOC(=O)c1ccc(NC(=O)c2cccn(Cc3ccccc3F)c2=O)cc1	7.08 µM [falling, partial curve, poor fit]	
NCCCCC(N)C(=O)O (configuration not stated)	28.2 µM [falling, single point]	35.5 µM [falling, single point]
CC1(C)CC2(CCO1)NCCN1C(=O)CSC12 (configuration not stated)	0.562 µM [falling, single point]	
ClC1C(Cl)C(Cl)C(Cl)C(Cl)C1Cl (configuration not stated)	0.447 µM [falling, partial curve]	0.794 µM [falling, partial curve]
CN=C(SCc1cc2c(cc1Cl)OCO2)c1c(O)n(C)c(=O)n(C)c1=O	10 µM [rising, single point]	14.1 µM [rising, single point]
COc1ccc(NP(=O)(Oc2ccc(Cl)cc2)Oc2ccc(Cl)cc2)cc1OC	35.5 µM [rising, single point]	
O=c1n(Cl)c(=O)n(Cl)c(=O)n1Cl		20 µM [falling, single point]
O=[N+]([O-])c1ccc(N2CCCCCC2)c2ncccc12		35.5 µM [rising, single point]
C(#CCN1CCCCC1)COCc1ccccc1	1.58 µM [falling, full curve]	2 µM [falling, full curve, poor fit]
CCOC(=O)c1c(C)n(Cc2ccc3c(c2)OCO3)c2ccc(O)cc12	20 µM [rising, single point]	
Nc1c(C(=O)NCc2ccco2)c2nc3ccccc3nc2n1CCN1CCCCC1	20 µM [rising, single point]	
COP(=O)(OC)C(O)C(Cl)(Cl)Cl (configuration not stated)	35.5 µM [rising, single point]	
COc1cc2c(cc1OC)-c1c3c(cc4c1[C@@H](C2)N(C)CC4)OCO3	11.2 µM [rising, partial curve]	
CCCC(C)C1(CC)C(=O)NC(=O)NC1=O (configuration not stated)	10 µM [rising, partial curve, poor fit]	5.01 µM [falling, partial curve, poor fit]
O=Cc1ccco1		25.1 µM [rising, single point]
O=C(CN1CC=C(c2ccccc2)CC1)NC(=O)NCc1ccccc1	0.141 µM [rising, full curve, poor fit]	
CC(C)(C)C(=O)OC1=CN(Cc2ccccc2)S(=O)(=O)c2ccccc21	0.00891 µM [falling, full curve, poor fit]	
Cc1ccccc1CN1CCN(c2ccc(Cl)cc2)CC1	0.158 µM [falling, full curve, poor fit]	
c1ccc(Cn2ccnc2)cc1		0.00355 µM [rising, full curve, poor fit]
Cc1ccc(-c2nn(Cc3ccccc3)cc2C=O)cc1C	12.6 µM [rising, partial curve]	
CCn1c(NN=O)nc2ccccc21	17.8 µM [falling, partial curve, poor fit]	5.62 µM [falling, partial curve, poor fit]
C[C@]12CC[C@@H]3c4ccc(O)cc4C(=O)C[C@H]3[C@@H]1CC[C@@H]2O	10 µM [rising, partial curve, poor fit]	
Cc1ccsc1-c1nc(CSCC(=O)N2CCC3(CC2)OCCO3)c(C)o1	15.8 µM [rising, partial curve]	11.2 µM [rising, partial curve]
